From PubChem BioAssay AID485314 (National Center for Advancing Translational Sciences (NCATS), 2010)
The whole screen tested about 340,000 compounds, of which about 4,500 (1.3%) were called active. This list was built around the results that the source calls inconclusive (neither active nor inactive); the mix of calls is not that of the screen. Calls follow the shape of the dose curve; as a rule, active = well fitted inhibition curve with a large enough effect; inconclusive = small, poorly fitted or top-dose-only effect, or another doubt; inactive = no such curve, though single readings can be large or run the other way. Where the call is inconclusive, the potency comes from a doubtful curve fit.

These compounds were tested against DNA polymerase beta (Homo sapiens) (UniProt P06746) (assay: qHTS Assay for Inhibitors of DNA Polymerase Beta). Conditions: Pol beta primer extension/strand displacement, fluorescence kinetic; activity change, negative = inhibition: at 114 µM (top of the series).
How it was run: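 Pol beta (10 nM) was preincubated with compound for 15 min at room temperature. The reaction was then started with 50 nM substrate and read immediately and after a further 10 min at room temperature.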
% is scaled to controls: 0 for no effect and ±100 for the full control effect; potency is read from the fitted curve at half-maximal effect.

| SMILES | Potency | activity change, negative = inhibition |
| --- | --- | --- |
| Cn1c(-c2ccc(C=O)s2)nc2ccccc21 | inconclusive: 3.16 µM [inhibitor, single point] |  |
| O=c1cc(-c2ccc(O)c(O)c2)oc2cc(O)c(C3OC(CO)C(O)C(O)C3O)c(O)c12 (centres undefined) | active: 4.47 µM |  |
| CC1CCCCC12NC(=O)N(CC(=O)Nc1sc3c(c1C(N)=O)CCC3)C2=O (centres undefined) | active: 31.6 µM |  |
| Cc1ccc([N+](=O)[O-])c(C(=O)N/N=C/c2cccs2)c1 |  | inconclusive: -30.9% [inhibitor] |
| Cc1ccc(Cl)cc1N1CCN(C(=O)c2cc(S(=O)(=O)N3CCCCCC3)cn2C)CC1 | inconclusive: 89.1 µM [inhibitor, single point] |  |
| COc1cccc(NC(=O)CSCn2nnc3c(=O)[nH]c(Cc4ccc(F)cc4)nc32)c1 | inconclusive: 100 µM [inhibitor, single point] |  |
| CC(C)(C)NC(=O)COC(=O)c1c2c(nc3ccccc13)CCC2 | active: 44.7 µM |  |
| CCOc1ccc(-c2nn(-c3ccccc3)cc2C2NC(=O)NC(C)=C2C(=O)OC(C)C)cc1C (centres undefined) | inconclusive: 1.58 µM [inhibitor, single point] |  |
| Cc1cc(/C=C2\Sc3ccccc3N2C)cc(C)[n+]1CC1CCCO1 (centres undefined) | inconclusive: 50.1 µM [inhibitor, partial curve, poor fit] |  |
| CCCCCC(=O)N=Nc1c(O)[nH]c2ccc([N+](=O)[O-])cc12 | inconclusive: 2.51 µM [inhibitor, full curve] |  |
| CC1OC(Oc2c(-c3cc(O)c(O)c(O)c3)oc3cc(O)cc(O)c3c2=O)C(O)C(O)C1O (centres undefined) | active: 14.1 µM |  |
| O=C(O)/C=C/C(=O)Nc1ccc(Oc2ccc(NC(=O)/C=C/C(=O)O)cc2)cc1 | active: 39.8 µM |  |
| Cc1cc(-c2nn3c(-c4ccccc4)nnc3s2)c2ccccc2n1 | inconclusive: 79.4 µM [inhibitor, single point] |  |
| COc1ccc(CNC(=O)c2cc3c(=O)n4cccc(C)c4nc3s2)cc1 |  | inactive: 5.81% |
| O=C(Nc1cc2ccc(O)cc2oc1=O)c1ccc(F)cc1 | inconclusive: 22.4 µM [inhibitor, partial curve] |  |
| COc1ccc(CCNC(=O)CCCCn2c(=O)c3ccccc3n(Cc3ccc(Cl)cc3)c2=O)cc1OC |  | inactive: -0.798% |
| COc1ccc(CCNC(=O)CN2C(=O)NC(Cc3c[nH]c4ccccc34)C2=O)cc1 (centres undefined) | inconclusive: 31.6 µM [inhibitor, single point] |  |
| Cn1nnnc1NC(=O)c1ccccc1Cl | inconclusive: 70.8 µM [inhibitor, partial curve] |  |
| CC(=O)Oc1ccc2c(=O)c(Oc3ccccc3[N+](=O)[O-])coc2c1 | inconclusive: 56.2 µM [inhibitor, partial curve, poor fit] |  |

Retrieved by structure from the entries so far:

| SMILES | Potency | activity change, negative = inhibition |
| --- | --- | --- |
| CC(=O)Oc1ccc2c(=O)c(Oc3ccccc3[N+](=O)[O-])coc2c1 | inconclusive: 56.2 µM [inhibitor, partial curve, poor fit] |  |
| COc1cccc(NC(=O)CSCn2nnc3c(=O)[nH]c(Cc4ccc(F)cc4)nc32)c1 | inconclusive: 100 µM [inhibitor, single point] |  |
